Results are given in words; binding and its absence hold for the method and conditions named. Some entries that bind do so weakly or less than the wild type.

Test [1] deals with Cox13 (cytochrome c oxidase subunit Cox13) from S. cerevisiae, refolded in DPC micelles (S. cerevisiae) (UniProt P32799). Nature of the test: SDS-PAGE; refolded, purified Cox13; monomer runs at an apparent 16 kDa, and a fraction consistent with a dimer is seen; both purified.
For test [2] the target is unchanged. Put plainly: solution NMR structure (intermolecular NOEs); 1:1 mixture of 15N,13C-labeled and unlabeled Cox13, mixed at the level of inclusion bodies; 13C/15N-filtered/edited NOESY-HSQC; 20 mM NaPi pH 6.5, 50 mM L-Arg, 50 mM L-Glu, 1 mM DTT, 30 mM DPC-d38, 40 °C; both purified.

B1: Cox13 (cytochrome c oxidase subunit Cox13) from S. cerevisiae, refolded in DPC micelles (natural protein)
chain: ASSLPPNALKPAFGPPDKVAAQKFKESLMATEKHAKDTSNMWVKISVWVALPAIALTAVNTYFVEKEHAEHREHLKHVPDSEWPRDYEFMNIRSKPFFWGDGDKTLFWNPVVNRHIEHDD
notes: Cox13, cytochrome c oxidase subunit of S. cerevisiae; the gene was cloned into pET-28a; predicted mass 15 kDa; residues assigned up to I125; Isotope-labelled (15N and/or 13C) or unlabelled, depending on the experiment; also called Cox13-DPC complex; CoxVIa in mammals (homolog)
In the case of B1, the binding result in test [1] and in test [2] was “binds” each time.

These data come from publication PMC8111780, “NMR structural analysis of the yeast cytochrome c oxidase subunit Cox13 and its interaction with ATP” (BMC Biology, 2021).
